No constants are given. Whether binding was seen depends on the method and setting.
Target: C313Y myostatin growth factor (UniProt O14793)
Test: reducing versus non-reducing SDS-PAGE (disulphide-linked dimer); furin cleavage products of the purified precursor proteins, 15% SDS-PAGE, reducing versus non-reducing; both purified

The chains behind the UniProt entries cited, without tags or fusion partners. Where a name states a change or a piece, a line headed by the entry shows the natural chain unless it says otherwise. A line that says so, or that is headed by a name, gives the form on record, which may keep a tag or linker.
C313Y myostatin growth factor (O14793, form named): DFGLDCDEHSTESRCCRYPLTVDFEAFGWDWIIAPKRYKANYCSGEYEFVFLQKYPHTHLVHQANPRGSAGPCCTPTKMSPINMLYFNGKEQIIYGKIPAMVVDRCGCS

- binding: no binding
Substance: C313Y myostatin growth factor (from UniProt O14793 267-375) (ligand)

— article PMC3213697
